## Primary screen of a compound library

Protein sequences, listed by entry. Tags and fused reporters are not part of them.
UniProt E9BF75, entry or part of it: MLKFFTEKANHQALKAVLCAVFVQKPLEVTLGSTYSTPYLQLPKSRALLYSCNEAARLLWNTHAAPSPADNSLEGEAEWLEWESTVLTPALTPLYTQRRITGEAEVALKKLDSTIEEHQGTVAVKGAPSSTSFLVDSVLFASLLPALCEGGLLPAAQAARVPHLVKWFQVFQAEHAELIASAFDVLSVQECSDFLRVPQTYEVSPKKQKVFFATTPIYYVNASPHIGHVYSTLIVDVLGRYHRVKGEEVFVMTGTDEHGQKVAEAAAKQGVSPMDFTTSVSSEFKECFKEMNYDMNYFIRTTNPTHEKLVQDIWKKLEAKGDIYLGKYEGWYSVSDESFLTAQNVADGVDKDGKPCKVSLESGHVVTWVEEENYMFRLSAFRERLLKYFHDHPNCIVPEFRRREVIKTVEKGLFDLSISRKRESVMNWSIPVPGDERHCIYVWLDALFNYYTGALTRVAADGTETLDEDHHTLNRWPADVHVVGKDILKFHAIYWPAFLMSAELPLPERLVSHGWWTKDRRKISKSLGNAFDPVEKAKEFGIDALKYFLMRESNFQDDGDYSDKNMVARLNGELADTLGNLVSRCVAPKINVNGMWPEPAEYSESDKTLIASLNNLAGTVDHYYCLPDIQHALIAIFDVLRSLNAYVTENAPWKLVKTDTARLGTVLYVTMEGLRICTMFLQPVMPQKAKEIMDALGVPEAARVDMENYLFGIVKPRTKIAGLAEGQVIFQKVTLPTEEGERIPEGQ

Data taken from ChEMBL document CHEMBL3988442, “University of Dundee, Small-Polar-MMV Screening Library” (2021).

Mtb heat-shock: 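Assay on Mycobacterium tuberculosis, filed only as a heat shock assay from Cornell; the read-out is not stated. The concentration is filed as 10 mM, unlikely as a test dose, so the dose is not known. Direction is inferred from retests: higher values go with stronger inhibition. Size under these conditions: about 69,000 compounds, about 930 of them at 50% or above in at least one test.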
LdMetRS: 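Primary screen of methionyl-tRNA synthetase; the read-out is not stated. Target: Methionyl-tRNA synthetase (putative), Leishmania donovani (UniProt E9BF75). The test concentration is not given. Values are per cent inhibition. Of about 68,000 compounds tested this way, about 24 (0.035%) reached 50% or more in at least one test.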
Mtb growth Cornell: 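Whole-cell assay for inhibitors of Mycobacterium tuberculosis growth, labelled Cornell in the record; the read-out is not stated. The concentration is filed as 10 mM, unlikely as a test dose, so the dose is not known. Higher means stronger inhibition (inferred from two other growth screens of the library). About 53,000 compounds were tested under these conditions; 1.7% (about 900) showed 50% or more at least once.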

Results are percentages, as filed.
The controls that fix the scale are not given in the record; negative values are as filed.
This is an unselected part of the compounds tested.

{"smiles": "O=C([C@H]1CCCO1)N1CCC2(CC1)Cc1ccccc1CNC2=O", "Mtb heat-shock": -1.87, "LdMetRS": 8.403, "Mtb growth Cornell": -17.25}
{"smiles": "CCn1ncnc1C(C)NC(=O)C1CCN(C(=O)COC)CC1", "stereo": "centres unmarked", "Mtb heat-shock": 2.675, "LdMetRS": 16.73, "Mtb growth Cornell": 17.85}
{"smiles": "Cn1ccnc1CN1CCC2(CC1)CC(NC(=O)c1ccccn1)CO2", "stereo": "centres unmarked", "LdMetRS": 13.73}
{"smiles": "COc1cccc(CN(Cc2ccco2)Cc2cnc(C)n2C)c1.O=C(O)CC(O)(CC(=O)O)C(=O)O", "Mtb heat-shock": -22.57, "Mtb growth Cornell": 27.72}
{"smiles": "[H][C@]12CN(C(=O)c3cccn3C)CC[C@@]1(O)CCN(S(C)(=O)=O)C2", "Mtb heat-shock": -7.42, "Mtb growth Cornell": -18.15}
{"smiles": "CCn1cnnc1CNC(=O)N1CCC(O)CC1", "Mtb heat-shock": 1.611, "LdMetRS": 18.62, "Mtb growth Cornell": -20.2}
{"smiles": "O=C(O)C(F)(F)F.[H][C@@]12C[C@H](C(=O)N3CCCCO3)CN(Cc3ccoc3)[C@]1([H])CCO2", "Mtb heat-shock": -7.963, "Mtb growth Cornell": 22.73}
{"smiles": "CN1CCN(c2cc(CNC(=O)c3ccc(=O)[nH]n3)ccn2)CC1", "Mtb heat-shock": 36.57, "LdMetRS": 7.975, "Mtb growth Cornell": 9.173}
{"smiles": "Cc1c(CNC(=O)C2CCCCCN2C)oc2ccccc12", "stereo": "centres unmarked", "Mtb heat-shock": -12.25, "LdMetRS": 6.959, "Mtb growth Cornell": 9.729}
{"smiles": "O=C(NCCO)c1cc(-c2ccc3c(c2)CCO3)n[nH]1", "Mtb heat-shock": -5.26, "LdMetRS": 5.758, "Mtb growth Cornell": -20.45}
{"smiles": "O=C(NCCn1ccnc1)C1(c2ccc3c(c2)OCCO3)CCCC1", "Mtb heat-shock": -2.53, "LdMetRS": 10.89, "Mtb growth Cornell": -4.604}
{"smiles": "Cc1ccc(Oc2cc(CN)ccn2)cc1C.Cl", "Mtb heat-shock": 1.715, "Mtb growth Cornell": -26.7}
{"smiles": "CCNc1nc(C)c(C(=O)N2CCN(c3ncccc3C)CC2)s1", "Mtb heat-shock": -4.09, "LdMetRS": 4.902, "Mtb growth Cornell": -0.2216}
{"smiles": "O=C(COCc1ccccc1)N1CCCC(OCc2cccnc2)C1", "stereo": "centres unmarked", "Mtb heat-shock": -10.42, "LdMetRS": 4.587, "Mtb growth Cornell": -23.13}
{"smiles": "C[S+]([O-])c1cccc(NC(=O)N[C@H](CCO)c2ccccc2)c1", "stereo": "some centres unmarked", "Mtb heat-shock": -1.776, "LdMetRS": 14.09, "Mtb growth Cornell": -6.08}
{"smiles": "CS(=O)(=O)NC1CC2(CCN(CCF)CC2)Oc2ccccc21", "stereo": "centres unmarked", "LdMetRS": 12.18}
{"smiles": "[H][C@]12CCCCN1CCC[C@@]2(O)CN1CCN(Cc2ncccc2C)CC1", "Mtb heat-shock": 0.06241, "Mtb growth Cornell": 2.736}
{"smiles": "COc1ccc(N2CCC(NC(=O)c3sccc3C)CC2)cc1", "Mtb heat-shock": 9.885, "LdMetRS": 12.7, "Mtb growth Cornell": -7.923}
{"smiles": "CCN(CC)S(=O)(=O)c1ccc(CNC(=O)c2cc(C)on2)cc1", "Mtb heat-shock": 7.389, "LdMetRS": 17.33}
{"smiles": "O=C(Nc1ccc2c(c1)OCO2)Nc1cnn(C2CCOCC2)c1", "Mtb heat-shock": 14.98, "LdMetRS": 9.859, "Mtb growth Cornell": 41.07}
{"smiles": "O=C(COCC(F)(F)F)NC1CCCc2cc(OC(F)F)ccc21", "stereo": "centres unmarked", "Mtb heat-shock": 21.22, "LdMetRS": 13.04, "Mtb growth Cornell": 34.79}
{"smiles": "COc1ccc(C(=O)N(C)Cc2c(C)noc2C)cn1", "Mtb heat-shock": -6.975, "LdMetRS": 25.14, "Mtb growth Cornell": 10.6}
{"smiles": "O=C(c1cn(-c2cccc(Cl)c2F)nn1)N1CCCSCC1", "Mtb heat-shock": -13.89, "LdMetRS": 12.93, "Mtb growth Cornell": 14.82}
{"smiles": "[H][C@@]12OCCN(C(=O)c3ccc(C)o3)[C@@]1([H])CC[C@H]2OCC", "Mtb heat-shock": -5.914, "Mtb growth Cornell": 9.024}
{"smiles": "Cc1ccn(-c2ccnc(N3CCC(N4CCCCC4)CC3)n2)n1", "Mtb heat-shock": -8.132, "LdMetRS": 15.86, "Mtb growth Cornell": 9.847}
{"smiles": "[H][C@]12OCCN(C(=O)COc3ccccc3)[C@@]1([H])CC[C@@H]2OCC", "Mtb heat-shock": 43.84, "Mtb growth Cornell": -30.55}

The first 2 entries again:

{"smiles": "O=C([C@H]1CCCO1)N1CCC2(CC1)Cc1ccccc1CNC2=O", "Mtb heat-shock": -1.87, "LdMetRS": 8.403, "Mtb growth Cornell": -17.25}
{"smiles": "CCn1ncnc1C(C)NC(=O)C1CCN(C(=O)COC)CC1", "stereo": "centres unmarked", "Mtb heat-shock": 2.675, "LdMetRS": 16.73, "Mtb growth Cornell": 17.85}